Drawing on publication PMC8616041, this text covers binding for one substance.

The test addresses V^N-DJ-1 (human) (UniProt Q99497). As to the kind of experiment: split reporter; mVenus BiFC constructs co-transfected into HeLa cells; BiFC signal detected on fixed samples by confocal microscopy.

These are yes or no findings as the source states them, for the method shown. In cells and extracts the contact can be indirect. Some binding calls cover weakened binding; strength is not graded here.

For the substance “V^C-TPPP/p25 (from UniProt O94811 1-219)”, the binding entry is “binds”.
